PubChem BioAssay AID1259405, NCATS – 2018
Shown is one part, drawn at random, of about 50,000 reagents. Over the whole deposit, about 4,000 (8%) were called active. 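Mouse siRNA library applied to hamster cells; one well for each siRNA.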

Assay: 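Mouse-designed siRNAs used to find CHO productivity engineering targets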 (primary screen)
Cells: Chinese hamster CHO-K1 ovary cells with stable secreted eGFP expression
Reagents: single siRNA against mouse genes, 0.8 pmol siRNA per well (2 µl of 400 nM stock)
Time to read-out: 3 days
Detection: 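Per-well intracellular GFP measured by laser scanning cytometry, plus viability from ATP luminescence, each relative to plate median of non-targeting control wells, in %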
Scale: GFP, % of control: higher = more GFP per well, higher productivity; viability (ATP), % of control: higher = more viable cells (more ATP)
Active means: 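a knock-down is called active if GFP reaches 120% or more of non-targeting control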

The opening 2 records, to show the layout:
{"gene": "Gpr119 (G-protein coupled receptor 119)", "PubChem SID": "SID363571134", "GFP, % of control": 85.9, "viability (ATP), % of control": 52.5, "Outcome": "inactive"}
{"gene": "Gpr119 (G-protein coupled receptor 119)", "PubChem SID": "SID363571486", "GFP, % of control": 98.5, "viability (ATP), % of control": 86.3, "Outcome": "inactive"}

The listing, from the start:
{"gene": "Gpr119 (G-protein coupled receptor 119)", "PubChem SID": "SID363571134", "GFP, % of control": 85.9, "viability (ATP), % of control": 52.5, "Outcome": "inactive"}
{"gene": "Gpr119 (G-protein coupled receptor 119)", "PubChem SID": "SID363571486", "GFP, % of control": 98.5, "viability (ATP), % of control": 86.3, "Outcome": "inactive"}
{"gene": "Gpr119 (G-protein coupled receptor 119)", "PubChem SID": "SID363571838", "GFP, % of control": 42.4, "viability (ATP), % of control": 36.3, "Outcome": "inactive"}
{"gene": "Praf2 (PRA1 domain family 2)", "PubChem SID": "SID363574587", "GFP, % of control": 96.7, "viability (ATP), % of control": 75.7, "Outcome": "inactive"}
{"gene": "Praf2 (PRA1 domain family 2)", "PubChem SID": "SID363575643", "GFP, % of control": 98.3, "viability (ATP), % of control": 58.9, "Outcome": "inactive"}
{"gene": "Praf2 (PRA1 domain family 2)", "PubChem SID": "SID363580219", "GFP, % of control": 55, "viability (ATP), % of control": 68.6, "Outcome": "inactive"}
{"gene": "Zic3 (zinc finger protein of the cerebellum 3)", "PubChem SID": "SID363572379", "GFP, % of control": 85.9, "viability (ATP), % of control": 116, "Outcome": "inactive"}
{"gene": "Zic3 (zinc finger protein of the cerebellum 3)", "PubChem SID": "SID363574139", "GFP, % of control": 86.6, "viability (ATP), % of control": 61.7, "Outcome": "inactive"}
{"gene": "Rapgef4 (Rap guanine nucleotide exchange factor (GEF) 4)", "PubChem SID": "SID363570175", "GFP, % of control": 53.8, "viability (ATP), % of control": 48.8, "Outcome": "inactive"}
{"gene": "Rapgef4 (Rap guanine nucleotide exchange factor (GEF) 4)", "PubChem SID": "SID363576511", "GFP, % of control": 102, "viability (ATP), % of control": 69, "Outcome": "inactive"}
{"gene": "Rapgef4 (Rap guanine nucleotide exchange factor (GEF) 4)", "PubChem SID": "SID363579679", "GFP, % of control": 77.4, "viability (ATP), % of control": 62.6, "Outcome": "inactive"}
{"gene": "Spaca7 (sperm acrosome associated 7)", "PubChem SID": "SID363543491", "GFP, % of control": 64.7, "viability (ATP), % of control": 52, "Outcome": "inactive"}
{"gene": "Spaca7 (sperm acrosome associated 7)", "PubChem SID": "SID363552984", "GFP, % of control": 59.8, "viability (ATP), % of control": 105, "Outcome": "inactive"}
{"gene": "Spaca7 (sperm acrosome associated 7)", "PubChem SID": "SID363558832", "GFP, % of control": 97, "viability (ATP), % of control": 79, "Outcome": "inactive"}
{"gene": "Tbce (tubulin-specific chaperone E)", "PubChem SID": "SID363553762", "GFP, % of control": 68.3, "viability (ATP), % of control": 49.6, "Outcome": "inactive"}
{"gene": "Tbce (tubulin-specific chaperone E)", "PubChem SID": "SID363561719", "GFP, % of control": 31.2, "viability (ATP), % of control": 59.9, "Outcome": "inactive"}
{"gene": "Tbce (tubulin-specific chaperone E)", "PubChem SID": "SID363565457", "GFP, % of control": 25.1, "viability (ATP), % of control": 67.6, "Outcome": "inactive"}
{"gene": "Rap2a (RAS related protein 2a)", "PubChem SID": "SID363570436", "GFP, % of control": 96.8, "viability (ATP), % of control": 81.1, "Outcome": "inactive"}
{"gene": "Rap2a (RAS related protein 2a)", "PubChem SID": "SID363579236", "GFP, % of control": 77, "viability (ATP), % of control": 108, "Outcome": "inactive"}
{"gene": "Rap2a (RAS related protein 2a)", "PubChem SID": "SID363583108", "GFP, % of control": 73.4, "viability (ATP), % of control": 78.2, "Outcome": "inactive"}
{"gene": "Gtf2h3 (general transcription factor IIH, polypeptide 3)", "PubChem SID": "SID363573298", "GFP, % of control": 86.5, "viability (ATP), % of control": 68.6, "Outcome": "inactive"}
{"gene": "Gtf2h3 (general transcription factor IIH, polypeptide 3)", "PubChem SID": "SID363588537", "GFP, % of control": 87.7, "viability (ATP), % of control": 68.7, "Outcome": "inactive"}
{"gene": "Rnf6 (ring finger protein (C3H2C3 type) 6)", "PubChem SID": "SID363540844", "GFP, % of control": 98.7, "viability (ATP), % of control": 124, "Outcome": "inactive"}
{"gene": "Rnf6 (ring finger protein (C3H2C3 type) 6)", "PubChem SID": "SID363543295", "GFP, % of control": 54.4, "viability (ATP), % of control": 74.9, "Outcome": "inactive"}
{"gene": "Rnf6 (ring finger protein (C3H2C3 type) 6)", "PubChem SID": "SID363552788", "GFP, % of control": 76.5, "viability (ATP), % of control": 117, "Outcome": "inactive"}
{"gene": "Lingo4 (leucine rich repeat and Ig domain containing 4)", "PubChem SID": "SID363544156", "GFP, % of control": 102, "viability (ATP), % of control": 66.2, "Outcome": "inactive"}
{"gene": "Lingo4 (leucine rich repeat and Ig domain containing 4)", "PubChem SID": "SID363550484", "GFP, % of control": 106, "viability (ATP), % of control": 86, "Outcome": "inactive"}
{"gene": "Lingo4 (leucine rich repeat and Ig domain containing 4)", "PubChem SID": "SID363557033", "GFP, % of control": 65.7, "viability (ATP), % of control": 93.4, "Outcome": "inactive"}
